From doi:10.1101/2022.03.27.485962 come the findings set out here.

The chains behind the UniProt entries cited, without tags or fusion partners. Residues count along the entry.
UniProt P0DTX1: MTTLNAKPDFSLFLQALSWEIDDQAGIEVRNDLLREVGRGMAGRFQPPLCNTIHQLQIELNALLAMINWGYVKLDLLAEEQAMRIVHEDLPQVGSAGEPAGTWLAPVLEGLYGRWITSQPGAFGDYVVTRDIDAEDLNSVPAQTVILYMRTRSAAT
UniProt O82861, residues 31-1326: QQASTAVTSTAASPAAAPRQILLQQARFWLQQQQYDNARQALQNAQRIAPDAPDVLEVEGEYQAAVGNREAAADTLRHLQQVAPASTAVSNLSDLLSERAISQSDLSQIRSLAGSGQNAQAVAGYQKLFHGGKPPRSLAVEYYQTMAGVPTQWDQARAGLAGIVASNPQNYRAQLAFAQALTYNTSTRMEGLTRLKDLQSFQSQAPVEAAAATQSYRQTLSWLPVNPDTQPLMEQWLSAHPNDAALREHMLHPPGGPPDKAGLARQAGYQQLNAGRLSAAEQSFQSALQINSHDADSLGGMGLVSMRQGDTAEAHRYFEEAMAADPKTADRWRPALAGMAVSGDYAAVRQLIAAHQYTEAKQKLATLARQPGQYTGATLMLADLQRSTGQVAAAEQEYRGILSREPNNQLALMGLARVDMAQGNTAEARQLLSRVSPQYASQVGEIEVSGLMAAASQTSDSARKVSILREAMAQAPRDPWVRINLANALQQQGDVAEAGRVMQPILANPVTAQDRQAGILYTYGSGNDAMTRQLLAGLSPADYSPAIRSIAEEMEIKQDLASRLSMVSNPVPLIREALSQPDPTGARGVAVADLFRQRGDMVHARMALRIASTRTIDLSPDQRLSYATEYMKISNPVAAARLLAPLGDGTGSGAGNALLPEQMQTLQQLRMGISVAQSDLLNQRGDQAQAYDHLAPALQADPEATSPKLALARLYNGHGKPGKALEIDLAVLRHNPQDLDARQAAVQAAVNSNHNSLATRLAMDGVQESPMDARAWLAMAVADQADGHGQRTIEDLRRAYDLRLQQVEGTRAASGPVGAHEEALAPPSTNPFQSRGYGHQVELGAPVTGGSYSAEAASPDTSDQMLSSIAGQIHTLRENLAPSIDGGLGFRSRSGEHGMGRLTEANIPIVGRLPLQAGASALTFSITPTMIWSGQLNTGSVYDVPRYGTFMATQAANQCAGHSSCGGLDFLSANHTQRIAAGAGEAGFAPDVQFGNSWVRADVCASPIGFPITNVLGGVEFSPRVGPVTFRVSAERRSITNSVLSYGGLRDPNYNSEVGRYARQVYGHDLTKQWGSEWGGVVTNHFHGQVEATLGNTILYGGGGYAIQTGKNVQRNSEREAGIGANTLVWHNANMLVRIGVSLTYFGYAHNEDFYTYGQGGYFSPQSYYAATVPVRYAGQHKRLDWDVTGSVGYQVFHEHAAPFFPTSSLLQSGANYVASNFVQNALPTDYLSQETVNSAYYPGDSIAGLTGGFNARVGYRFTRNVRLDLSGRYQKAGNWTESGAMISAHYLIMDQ

No constants are given. Whether binding was seen depends on the method and setting. Binding seen in cells or lysates may run through a third protein. Some binding calls cover weakened binding; strength is not graded here.

In the assay the target is BcsD with a hexa-histidine tag attached to the C-terminus (Komagataeibacter sucrofermentans JCM9730 (BPR2001)) (UniProt P0DTX1). Briefly: pull-down.

Regarding “BcsC, full-length protein, without tag (from UniProt O82861 31-1326)”, the binding result is given as “binds”.
